According to paper PMC6589724, “A geminivirus betasatellite encoded βC1 protein interacts with PsbP and subverts PsbP‐mediated antiviral defence in plants”:

Experiments:
[1] = target: BD‐βC1 (βC1 protein of Radish leaf curl betasatellite, yeast two-hybrid bait) (Radish leaf curl betasatellite); experiment: two-hybrid; S. cerevisiae AH109; BD fusions (pGBKT7) with AD fusions (pGADT7); growth on SD‐Leu‐Trp‐His with 5 mM 3‐amino‐1,2,4‐triazole at 30 °C for 96 h
[2] = target: GST‐βC1 (recombinant βC1 of Radish leaf curl betasatellite) (Radish leaf curl betasatellite); experiment: pull-down; equal amounts of bacterially purified GST or GST‐βC1 and MBP or MBP‐PsbP mixed and incubated with glutathione resin for 4 h at 4 °C, five washes, eluate blotted with anti‐GST and anti‐MBP; both purified

Binder | binding [1] | binding [2]
AD‐PsbPD12 (NbPsbP1 amino acids 1‐200, yeast two-hybrid prey) (domain or fragment, UniProt I0B7J5 1-200) MASTQCFLHHHALSTPARTPLVRSIVPSLKPNQLLVCRAQKQSAPQEDNVNSLSLSRRLALTLLIGSAAIGSKVSPADAAYGEAANVFGKPKTDTDFQTYNGDGFKLQIPSKWNPNKEVEYPGQVLRFEDNFDATSNVIVAITPTDKKSITDFGSPEQFLSQVDYLLGRQAYSGKTDSEGGFESDAVAIANVLETSSAEV | binds | 
AD‐NtPsbP (PsbP1 of Nicotiana tabacum cv. Samsun NN, yeast two-hybrid prey) (protein, UniProt Q7DM39 1-268) MASTQCFLHQHALSSSAARTTSSVSSQRYVSSLKPNQLVCRAQKQSSPQEDDGNSVVVSRRLALTVLIGAAAIGSKVSPADAAYGEAANVFGKPKENTDFLAYNGDGFKLQVPAKWNPSKEVEFPGQVLRYEDNFDSTSNLIVTVTPTDKKSITDYGSPEEFLTQVDFLLGKQAYFGKTDSEGGFESGAVATANLLETSSSTVGGKEYYILSVLTRTADGDEGGKHQLISATVNGGKLYICKAQAGDKRWFKGARKFVENAATSFSVA | binds | 
AD‐PsbP (Nicotiana benthamiana PsbP1, oxygen‐evolving enhancer protein 2, yeast two-hybrid prey) (protein, UniProt I0B7J5 1-265) MASTQCFLHHHALSTPARTPLVRSIVPSLKPNQLLVCRAQKQSAPQEDNVNSLSLSRRLALTLLIGSAAIGSKVSPADAAYGEAANVFGKPKTDTDFQTYNGDGFKLQIPSKWNPNKEVEYPGQVLRFEDNFDATSNVIVAITPTDKKSITDFGSPEQFLSQVDYLLGRQAYSGKTDSEGGFESDAVAIANVLETSSAEVIGKPYYYLSVLTRTADGNEGGKHQLITATVNDGKLYICKAQAGDKRWFKGAKKFVENTVTSFSLA | binds | 
MBP‐PsbP (recombinant Nicotiana benthamiana PsbP1) (protein, UniProt I0B7J5 1-265) MASTQCFLHHHALSTPARTPLVRSIVPSLKPNQLLVCRAQKQSAPQEDNVNSLSLSRRLALTLLIGSAAIGSKVSPADAAYGEAANVFGKPKTDTDFQTYNGDGFKLQIPSKWNPNKEVEYPGQVLRFEDNFDATSNVIVAITPTDKKSITDFGSPEQFLSQVDYLLGRQAYSGKTDSEGGFESDAVAIANVLETSSAEVIGKPYYYLSVLTRTADGNEGGKHQLITATVNDGKLYICKAQAGDKRWFKGAKKFVENTVTSFSLA |  | binds
AD‐PsbPD1 (NbPsbP1 amino acids 1‐100, yeast two-hybrid prey) (domain or fragment, UniProt I0B7J5 1-100) MASTQCFLHHHALSTPARTPLVRSIVPSLKPNQLLVCRAQKQSAPQEDNVNSLSLSRRLALTLLIGSAAIGSKVSPADAAYGEAANVFGKPKTDTDFQTY | no binding | 

These are yes or no findings as the source states them, for the method shown. A result given as binding can be weak or reduced; the word gives no strength. Where a sequence is shown, tags or fusion partners need not be part of it.
